# Test results: patent publication US20050059615A1, “Transmucosal dosage forms for brain-targeted steroid chemical delivery systems” (priority 2003, published 2005)
# Test system: 2OHE1/16OHE1
# Test: Phase I clinical study: urinary estrone and 2OHE1/16OHE1
# Conditions: for amount of urinary 16OHE1 relative to day 1 (8-hour adjusted): end of treatment
structure (smiles),measurement,setting,value
"CN1C=CCC(C(=O)O[C@H]2CC[C@H]3[C@@H]4CCc5cc(O)ccc5[C@H]4CC[C@]23C)=C1 [E2-CDS, 17β-[(1-methyl-1,4-dihydro-3-pyridinyl)carbonyloxy]estra-1,3,5(10)-trien-3-ol]","difference of mean ratios, urine","day 10 minus day 1, Group A",0.15
same,"difference of mean ratios, urine","day 13 minus day 1, Group B",0.05
same,amount of urinary 16OHE1 relative to day 1 (8-hour adjusted),Group A,2.48 times
same,amount of urinary 16OHE1 relative to day 1 (8-hour adjusted),Group B,1.26 times
same,mean amount of urinary 2OHE1 relative to day 1 (adjusted to 8-hour collection),"last dosing day (day 10), Group A",4.46 times
same,mean amount of urinary 2OHE1 relative to day 1 (adjusted to 8-hour collection),"last dosing day (day 13), Group B",2.34 times
